Measurements: patent publication US20220324964A1 (GENERAL HOSPITAL, published 2022)

How the values were obtained:
[1] = target: T1, soluble TACI protein, fluorescently labeled (UniProt O14836 1-165, limits assumed, fluorescent label (not specified)); assay: flow cytometry, fluorescent soluble TACI titrated 0.01 to 1000 nM on CAR T cells, percentage TACI+ (panel Soluble binding of TACI), N=3
T1 construct: Labeled soluble protein used to stain CAR T cells in flow cytometry; also called sTACI; fluorescent TACI
T1 sequence (looked up): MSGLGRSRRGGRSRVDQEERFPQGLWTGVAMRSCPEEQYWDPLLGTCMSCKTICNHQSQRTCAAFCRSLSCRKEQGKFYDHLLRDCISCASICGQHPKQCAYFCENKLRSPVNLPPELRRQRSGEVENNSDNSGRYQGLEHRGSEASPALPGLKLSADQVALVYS
Excerpt: (§1) The top two plots show binding of fluorescent BCMA and the bottom two plots show binding of fluorescent TACI to anti-TACI H-L CAR, anti-TACI L-H CAR, anti-BCMA, anti-TACI/anti-BCMA bispecific CAR, anti-BCMA/anti-TACI bispecific CAR, or untransduced T cells. The two left plots show the percentage of cells positive for BCMA or TACI. The two right plots show median fluorescence intensity for each cell population relative to untransduced cells.
(§2) To test the efficacy of bispecific CAR T cells to bind their respective antigens, T cells were either left untransduced, or transduced with anti-TACI H-L CAR, anti-TACI L-H CAR, anti-BCMA CAR, anti-TACI/anti-BCMA bispecific CAR, or anti-BCMA/anti-TACI bispecific CAR, and were tested for their binding of soluble antigens.

[2] = target: T1, soluble TACI protein, fluorescently …; assay: flow cytometry, fluorescent soluble TACI titrated 0.01 to 1000 nM on CAR T cells, percentage TACI+, N=3
Protocol: (§3) FIGS. 25A-25B show measurements of binding of soluble TACI protein to untransduced T cells, and to T cells expressing anti-TACI H-L, anti-TACI L-H, or anti-BCMA. Cells were incubated with fluorescent soluble TACI protein at various concentrations, after which fluorescence of the cells was measured using flow cytometry, represented as percentage of cells positive for TACI (FIG. 25A) or as median fluorescence intensity (MFI) relative to signal measured in untransduced cells (FIG. 25B).
(§4) To evaluate the expression, binding efficacy, and binding specificity of anti-TACI CARs, normal donor T cells were transduced with anti-TACI H-L, anti-TACI L-H, or anti-BCMA and transduction efficiency was evaluated by measuring the percentage of each T cell population positive for mCherry expression by flow cytometry. […] To compare binding efficiency and specificity of different CARs, T cells expressing each CAR construct were incubated with fluorescently-labeled soluble TACI and analyzed by flow cytometry.

soluble BCMA, labeled = target: T2, soluble BCMA, labeled (UniProt Q02223 1-54, fluorescent label (not specified)); assay: flow cytometry, labeled soluble BCMA (8 to 1000 ng) on CAR T cells, gated on live CAR T cells
T2 construct: Labeled soluble protein used to stain CAR T cells in flow cytometry; also called sBCMA; fluorescent BCMA
T2 sequence (looked up): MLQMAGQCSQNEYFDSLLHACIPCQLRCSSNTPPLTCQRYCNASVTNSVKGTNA
Protocol: The anti-BCMA, anti-TACI (H/L), and anti-TACI (L/H) CAR T cells were evaluated for their capabilities to bind to soluble TACI (sTACI), soluble BCMA (sBCMA), and soluble APRIL (sAPRIL) was determined. T cells were washed 4 times in PBS 4% BSA, and incubated with labeled protein on ice at 4° C. for 40 min. After incubation, cells were washed twice with FACS buffer and flow cytometry was performed gating on live, CAR T cells to calculate protein binding. As evident in FIG. 12A, anti-TACI (L/H) CAR T cells have higher binding efficiency to soluble TACI than anti-TACI (H/L) CAR T cells.

[3] = target: T1, soluble TACI protein, fluorescently …; assay: flow cytometry, fluorescent soluble TACI titrated 0.01 to 1000 nM on CAR T cells, MFI relative to untransduced cells, N=3
Protocol: as §3, §4

[4] = target: T1, soluble TACI protein, fluorescently …; assay: flow cytometry, fluorescent soluble TACI titrated 0.01 to 1000 nM on CAR T cells, MFI relative to untransduced cells (panel Amount of soluble TACI binding), N=3
Excerpt: as §1, §2

EC50 (read off the curve) [1]: ~2 nM
EC50 (read off the curve) [2]: ~2 nM
binding result (soluble BCMA, labeled): no binding (tested: 1000 ng)
EC50 (read off the curve) [3]: ~10 nM
EC50 (read off the curve) [4]: ~10 nM
B1: Anti-TACI (L/H) CAR expressed on T cells (other)
chain: DIVLTQSPASLAVSLGQRATISCRASESVDYYGMSLMNWFQQKPGQPPKLVIYAASNQGSGVPARFSGSGSGTDFRLNIHPLEEDDTGMYFCQQSKEAPPTFGGGTKLEIKGGGGSGGGGSGGGGSGGGGSEVQLQQSGPELVKPGASVKISCKTSGYTFTESTIHWVKQSHGKSLEWIGGISPNNGGSPFNQKFKGKATLTVDKSSSTVYMELRSLSSEDSAVYYCAKWVRGAMDFWGQGTSVTVSSTTTPAPRPPTPAPTIASQPLSLRPEACRPAAGGAVHTRGLDFACDIYIWAPLAGTCGVLLLSLVITLYCKRGRKKLLYIFKQPFMRPVQTTQEEDGCSCRFPEEEEGGCELRVKFSRSADAPAYQQGQNQLYNELNLGRREEYDVLDKRRGRDPEMGGKPRRKNPQEGLYNELQKDKMAEAYSEIGMKGERRRGKGHDGLYQGLSTATKDTYDALHMQALPPR
notes: Chimeric antigen receptor: anti-TACI scFv VL-(G4S)4-VH, CD8 hinge/TM, 4-1BB, CD3zeta; The vector also expresses mCherry; also called Anti-TACI CAR (L-H)
